Data published in patent US20060084618.
A weaker result is weaker than the reference pair of the same experiment.

Chains of the proteins cited; added tags and fusions are not shown. Lines headed by an entry give the natural chain unless they say otherwise; changes in a name come on top. Chains listed by the source or under a name are the forms on record and can include a tag or linker.
UniProt O00482: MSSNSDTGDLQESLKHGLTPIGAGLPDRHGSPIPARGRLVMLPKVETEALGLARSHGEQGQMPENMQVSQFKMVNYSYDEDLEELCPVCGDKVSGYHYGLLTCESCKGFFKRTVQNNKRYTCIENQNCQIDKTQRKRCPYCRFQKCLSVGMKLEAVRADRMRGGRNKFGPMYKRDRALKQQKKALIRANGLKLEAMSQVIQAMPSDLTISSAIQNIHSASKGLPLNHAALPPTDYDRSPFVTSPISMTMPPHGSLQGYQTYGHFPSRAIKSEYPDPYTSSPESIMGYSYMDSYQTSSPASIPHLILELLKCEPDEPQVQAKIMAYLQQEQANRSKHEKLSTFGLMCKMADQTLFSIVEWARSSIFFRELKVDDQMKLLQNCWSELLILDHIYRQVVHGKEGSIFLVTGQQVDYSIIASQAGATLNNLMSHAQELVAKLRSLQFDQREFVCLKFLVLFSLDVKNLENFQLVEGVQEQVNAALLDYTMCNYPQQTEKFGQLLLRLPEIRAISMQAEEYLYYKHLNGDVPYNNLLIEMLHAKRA
PPARγ/RXRα heterodimer (Homo sapiens), one chain, as listed by the source, chain 2 of 2: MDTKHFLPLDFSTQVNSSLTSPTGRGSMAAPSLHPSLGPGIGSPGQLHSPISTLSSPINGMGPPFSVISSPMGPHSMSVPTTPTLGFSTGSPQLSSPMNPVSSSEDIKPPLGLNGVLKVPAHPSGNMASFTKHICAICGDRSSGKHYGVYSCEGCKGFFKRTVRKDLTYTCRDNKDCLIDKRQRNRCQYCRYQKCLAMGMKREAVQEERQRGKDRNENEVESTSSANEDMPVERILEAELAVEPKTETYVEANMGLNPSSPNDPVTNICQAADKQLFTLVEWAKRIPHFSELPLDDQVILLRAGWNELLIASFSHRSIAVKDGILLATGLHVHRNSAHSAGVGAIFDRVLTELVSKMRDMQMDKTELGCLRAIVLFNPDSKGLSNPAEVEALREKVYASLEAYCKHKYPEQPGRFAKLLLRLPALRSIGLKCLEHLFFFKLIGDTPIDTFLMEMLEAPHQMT
PPARγ/RXRα heterodimer (Homo sapiens), one chain, as listed by the source, chain 1 of 2: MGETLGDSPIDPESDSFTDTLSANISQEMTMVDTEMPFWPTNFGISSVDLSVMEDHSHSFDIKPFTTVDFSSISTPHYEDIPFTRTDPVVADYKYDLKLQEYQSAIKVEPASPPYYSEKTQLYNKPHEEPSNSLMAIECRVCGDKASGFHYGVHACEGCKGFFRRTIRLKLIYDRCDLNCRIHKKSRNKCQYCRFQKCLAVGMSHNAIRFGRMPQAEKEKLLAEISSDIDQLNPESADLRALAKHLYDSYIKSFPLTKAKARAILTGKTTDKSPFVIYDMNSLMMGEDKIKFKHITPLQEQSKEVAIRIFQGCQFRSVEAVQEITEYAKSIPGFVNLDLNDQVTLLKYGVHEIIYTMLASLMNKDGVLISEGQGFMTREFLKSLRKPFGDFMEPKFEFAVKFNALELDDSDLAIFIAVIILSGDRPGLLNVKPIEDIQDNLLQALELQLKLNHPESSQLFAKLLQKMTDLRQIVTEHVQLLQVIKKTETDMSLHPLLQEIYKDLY

Experiments:
[1] = target: LRH-1 (Homo sapiens) (UniProt O00482); experiment: competition with a labelled probe; details: unlabeled competitor 10x and 50x; band only slightly attenuated; synthetic protein; variant of adiponectin LRH-RE probe (-245 to -221)
[2] = test system: PPARγ/RXRα heterodimer (Homo sapiens); experiment: competition with a labelled probe; details: unlabeled competitor 10x and 50x; competing effect attenuated; protein translated in vitro; protein details: TNT T7 Quick Coupled (Promega); variant of adiponectin PPRE probe (-291 to -267)

Sequence	binding result [1]	binding result [2]
AATAAGGGTCAACCCCTGGAAACAC (double strand) [mutated LRH-RE competitor]	binds more weakly	
TGGTTTTGACTTTTGTTCCATCTTC (double strand) [mutated PPRE competitor]		binds more weakly
